This test in a line: qHTS Assay for Lipid Storage Modulators in Drosophila S3 Cells.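 On cell number change: cells counted by Cell Tracker Red CMTPX staining in the red channel.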 Particulars: BODIPY lipid droplet fluorescence, 18-24 h; for cell number change: measured here: cell count max response, cells fed with added oleic acid. In short, it runs like this:
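Drosophila S3 cells got compounds at several concentrations plus oleic acid (400 uM solution). Laser-scanning cytometry with 488 nm excitation read lipid droplets at 500-530 nm and cells at 575-640 nm. Percent activity was relative to 20 uM Triacsin C.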

Where [1] appears, read: measured here: lipid fluorescence (Fed channel) AC50, cells fed with added oleic acid.
Where [2] appears, read: measured here: cell number channel AC50, cells fed with added oleic acid.

Among the data in PubChem BioAssay AID2685 (National Center for Advancing Translational Sciences (NCATS), 2010) are cell number change and AC50 values, retold here.

The other results are listed elsewhere or left out. Further columns of the screen follow, without active or inactive calls. Most of these compounds were active or inconclusive in the main read-out, so they are no random draw. Potencies come from curve fits of mixed quality, noted in brackets.

With `CC(=O)NC1C(=O)N=C(SCC(=O)NC2CCCCC2)NC1=O` (stereo unspecified), the cell number change is -8.37%. The AC50 under setting [1] is 23.1 µM [falling, single point].
Regarding `COc1ccc(C(=O)C2CCCN(Cc3sc(N4CCCC4)nc3Cl)C2)c(OC)c1` (stereo unspecified), the cell number change was found to be 1.2%.
Turning to `O=[N+]([O-])c1ccc(Cl)c(NC2=NCCCCC2)c1`, the cell number change was determined as 13.7%. For the same molecule, the AC50 under setting [1] is 0.184 µM [falling, full curve, poor fit].
Consider `O=C(Nc1ccc(S(=O)(=O)N2CCCC2)cc1)c1c(F)cccc1F`, for which the AC50 under setting [1] is 0.164 µM [falling, full curve, poor fit].
With `COc1ccc(Cn2c(CCC(=O)NCCC(C)C)nc3ncccc3c2=O)cc1`, the cell number change amounted to 19.3%. In addition, under setting [1], the AC50 was 3.66 µM [rising, full curve, poor fit].
As to `O=C(NC12CC3CC(CC(C3)C1)C2)C1=COCCO1`, the cell number change was -12.6%. Also, the concentration at half-maximal activity (AC50) under setting [1] was 29.1 µM [rising, single point].
For `O=C(Nc1ccc2ccccc2c1)c1ccc(Cl)cc1`, the AC50 under setting [1] is 1.84 µM [falling, full curve].
Turning to `COc1ccc(-c2n[nH]c3c2C(c2ccc(OC)c(OC)c2)N(c2ccccc2)C3=O)cc1` (stereo unspecified), the AC50 is, setting by setting: under setting [2], 1.84 µM [rising, partial curve]; under setting [1], 2.91 µM [rising, partial curve].
With `COc1ccc2oc(=O)c(C(=O)N3CCN(C(=O)c4ccco4)CC3)cc2c1`, the cell number change is -3.48%. Also, the AC50 under setting [1] is 0.58 µM [rising, single point].
Take `CCCc1cc(-c2[nH]ncc2-c2ccc(C(=O)OCC)o2)c(O)cc1O`: the cell number change is -64.5%. The AC50 under setting [2] was 18.4 µM [falling, partial curve]. Besides, the concentration at half-maximal activity (AC50) under setting [1] is 16.4 µM [falling, single point].
As for `CCc1nnc(NC(=O)c2cc(S(=O)(=O)N(CC)CC)ccc2Cl)s1`, the cell number change is 27.4%.
Take `Cc1ccc(NC(=O)COC(=O)/C(=C/c2cccs2)c2cccs2)cc1S(=O)(=O)N(C)C`: the cell number change was found to be 27.3%. The AC50 under setting [2] was 2.06 µM [rising, full curve, poor fit]. Moreover, the AC50 under setting [1] is 2.31 µM [rising, full curve].
Consider `O=C(c1ccccn1)N1N=C2/C(=C/c3ccc(F)cc3)CCCC2C1c1ccc(F)cc1` (stereo unspecified), for which the cell number change is -18.5%. In addition, the AC50 under setting [1] is 20.6 µM [falling, single point].
For `CCc1cc(OCCCSc2nc(C)cc(=O)[nH]2)ccc1Cl`, the cell number change was -38.3%. Besides, under setting [2], the AC50 is 32.6 µM [falling, single point].
In the case of `CCc1ccc(NCc2cc3c(C)nn(-c4ccccc4)c3[nH]c2=O)cc1`, the cell number change is 1.62%. For the same molecule, the AC50 under setting [1] was 14.6 µM [falling, partial curve].
On to `Cc1ccc(S(=O)(=O)n2c(=O)oc3ccccc32)cc1`, for which the cell number change was determined as 4.08%.
For `Cn1c(=O)c(C(=O)CSc2nncs2)c(N)n(Cc2ccccc2)c1=O`, the cell number change is -2.79%.
Take `Cc1cccc(-n2c(C)cc(/C=N/O)c2C)c1`: the cell number change was 16.1%. Under setting [2], the concentration at half-maximal activity (AC50) is 0.411 µM [falling, full curve]. Further, the AC50 under setting [1] is 0.259 µM [falling, partial curve].
With `COc1ccc(CNC(=O)C(=O)NCC2CCCN2S(=O)(=O)c2ccccc2)cc1` (stereo unspecified), the cell number change was -7.91%. In addition, under setting [1], the AC50 is 0.00517 µM [falling, full curve, poor fit].
As for `CCOC(=O)c1cccc(COC(=O)c2cccc(-c3nnc(-c4ccccc4)o3)c2)c1`, the cell number change came out at 24.3%. Under setting [1], the AC50 was 0.291 µM [rising, full curve].
`COc1ccc(-c2c(C)nn(Cc3ccccc3)c2N)cc1`: the cell number change was -5.02%. Further, the AC50 under setting [2] was 0.326 µM [rising, partial curve, poor fit].
`Cc1nc(NCc2ccc3c(c2)OCO3)c2nnn(Cc3ccccc3)c2n1`: the cell number change is 64.4%. In addition, under setting [2], the AC50 is 4.11 µM [rising, full curve]. In addition, the AC50 under setting [1] is 0.517 µM [rising, full curve, poor fit].
With `O=c1[nH]c(NC2CCN(S(=O)(=O)c3ccccc3C(F)(F)F)CC2)nc2c1CCCC2`, the cell number change worked out at 0.806%. In addition, under setting [1], the AC50 was 0.82 µM [falling, full curve, poor fit].
With `N#CCC(=O)Nn1c(=S)[nH]c2ccccc2c1=O`, the cell number change was found to be 5.11%. Under setting [2], the AC50 is 0.231 µM [rising, full curve, poor fit].
On to `CC(C)Oc1cccc(-c2cc(C(=O)NC(=S)N(C)c3ccccc3C(=O)O)c3ccccc3n2)c1`, for which the cell number change was 17.3%. Further, the AC50 under setting [1] is 29.1 µM [rising, single point].
On to `COc1ccc(Cc2nc(-c3cccs3)no2)cc1OC`, for which the cell number change came out at 6.16%. The AC50 under setting [1] was 29.1 µM [falling, partial curve, poor fit].
As for `CCOc1ccccc1-c1cc(C(=O)N/N=C/c2ccc(O)c(OC)c2)c2ccccc2n1`, the cell number change was 30.4%. Also, the concentration at half-maximal activity (AC50) under setting [2] is 2.91 µM [rising, partial curve]. Moreover, the AC50 under setting [1] was 0.411 µM [falling, partial curve, poor fit].
With `COC(=O)c1ccc(S(=O)(=O)N2CCCCCC2)n1C`, the cell number change is -8.56%. Moreover, under setting [2], the AC50 is 0.00461 µM [falling, full curve, poor fit]. Besides, the AC50 under setting [1] was 2.59 µM [falling, full curve].
As to `O=C(N[C@@H](Cc1ccccc1)C(=O)OCc1ccccc1)c1nc[nH]c1C(=O)N1CCc2ccccc2C1`, the cell number change turned out to be 13.8%. Moreover, under setting [1], the AC50 is 0.259 µM [rising, full curve].
With `CC(C)CNC(=O)c1coc(=O)c(Br)c1`, the cell number change is -70.8%. Besides, the AC50 under setting [2] was 29.1 µM [falling, single point].
For `COCc1nc(-c2ccc(-c3ccc(OC)cc3)nc2OC)no1`, the cell number change amounted to 13.5%. In addition, the AC50 under setting [1] was 3.66 µM [rising, partial curve, poor fit].
For `Cc1ccc(S(=O)(=O)N2CCN(C(=O)COC(=O)c3oc4ccccc4c3C)CC2)cc1`, the cell number change is 83.5%. Besides, under setting [2], the AC50 was 8.2 µM [rising, partial curve].
As for `O=C(OCc1cc2ccccc2[nH]c1=O)c1ccccc1`, the AC50 is, setting by setting: under setting [2], 0.259 µM [rising, partial curve]; under setting [1], 0.517 µM [rising, full curve].
In the case of `C#CC[N+](C)(C)CCCCCCCCCCCC`, the cell number change was -21.2%. The AC50 under setting [1] was 16.4 µM [falling, partial curve].
`CC1Cc2ccccc2N1C(=S)NC(=O)c1cccc(Br)c1` (stereo unspecified): the cell number change is 4.31%.
For `O=c1[nH]c2ccccc2n1C1=CCNCC1`, the cell number change is 32%. The AC50 under setting [2] was 29.1 µM [rising, single point]. For the same molecule, the AC50 under setting [1] was 29.1 µM [rising, single point].
In the case of `O=C(CCNS(=O)(=O)c1c(Cl)cccc1Cl)OCC(=O)c1ccccc1`, the cell number change is 35.1%. Moreover, under setting [2], the AC50 was 29.1 µM [rising, single point]. The AC50 under setting [1] was 29.1 µM [rising, single point].
Consider `Cc1ccc(S(=O)(=O)Cc2ccc(C(=O)NC3CCCC3)o2)cc1`, for which the cell number change was 6.11%. Moreover, the AC50 under setting [1] was 29.1 µM [rising, single point].
Turning to `CN1CCN(CCCCOc2ccccc2C=O)CC1`, the cell number change was -1.55%. For the same molecule, under setting [1], the AC50 is 0.116 µM [falling, full curve, poor fit].
Regarding `CC1CN(C(=S)Nc2ccccc2)CC(C)O1` (stereo unspecified), the cell number change is -4.99%.
With `Cc1nn(Cc2ccccc2)c(Cl)c1/C=N/NC(=O)c1cccnc1`, the cell number change was -2.12%.
As to `Cc1ccc(NS(=O)(=O)c2cc(OCC(N)=O)c(C)cc2Cl)cc1`, the cell number change stood at 66.7%. For the same molecule, under setting [2], the AC50 was 29.1 µM [rising, single point]. For the same molecule, the AC50 under setting [1] is 0.146 µM [rising, partial curve, poor fit].
Turning to `COc1cccc(-c2nc(C(=O)NCCCN3CCOCC3)cc3c2[nH]c2ccccc23)c1`, the cell number change is -17.9%. The AC50 under setting [1] was 16.4 µM [falling, single point].
On to `COc1ccc2oc(C(=O)OCC(=O)N(Cc3ccccc3)C(C)(C)C)c(C)c2c1`, for which the cell number change is -37.7%. The concentration at half-maximal activity (AC50) under setting [2] was 29.1 µM [falling, single point].
For the molecule `COCc1cc(C)nc(SCC(=O)Nc2ccc3c(c2)n(C)c(=O)n3C)c1C#N`, the cell number change was -7.33%.
As to `CC(C)OC(=O)c1ccc(N2CCN(c3ccc(F)cc3)CC2)nc1`, the cell number change is -6.67%. Further, the AC50 under setting [1] was 0.146 µM [rising, full curve, poor fit].
On to `COc1ccc(-c2cc(C(=O)N3CCOCC3)c3ccccc3n2)cc1OC`, for which the cell number change was 12%.
In the case of `COc1cc(NC(=O)CSCc2ccccc2)c(C(=O)O)cc1OC`, the cell number change was -9.52%. Further, the AC50 under setting [1] was 29.1 µM [rising, single point].
In the case of `Cc1c(Br)cc(C(=O)NCc2ccco2)c(C)c1C`, the cell number change was -0.369%. For the same molecule, the half-maximal activity concentration (AC50) under setting [1] was 32.6 µM [falling, single point].
In the case of `Cc1nn(CC(=O)NCC(C)c2ccccc2)c(=O)c2cccn12` (stereo unspecified), the cell number change amounted to 17%. For the same molecule, under setting [2], the half-maximal activity concentration (AC50) is 3.66 µM [rising, single point]. Further, the AC50 under setting [1] was 2.59 µM [rising, single point].
`CCCC(O)(c1ccc(OC)cc1)C(CN(C)C)c1ccccc1` (stereo unspecified): the cell number change was -1.07%.
Turning to `CCS(=O)(=O)Nc1c(C)n(C)n(-c2ccccc2)c1=O`, the cell number change was -22.6%. The AC50 under setting [2] is 0.517 µM [falling, full curve, poor fit]. Also, the AC50 under setting [1] was 6.51 µM [falling, single point].
For the molecule `O=C(Cc1cccc(Cl)c1)Nc1ccc(Br)cc1`, the cell number change is -17%. Moreover, the AC50 under setting [1] was 5.8 µM [falling, full curve, poor fit].
`N#Cc1nc(-c2ccc(OCc3ccccc3)cc2)oc1NCCCN1CCOCC1`: the cell number change was -20.8%. In addition, the AC50 under setting [1] was 1.64 µM [rising, partial curve].
As for `CCn1c(SCC(=O)c2ccc(O)c(O)c2)nnc1-c1ccccc1`, the AC50 under setting [1] is 0.82 µM [falling, full curve, poor fit].
As to `CC1(c2ccc(Cl)cc2)NC(=O)N(CC(=O)N2CCCC2)C1=O` (stereo unspecified), the cell number change turned out to be 2.8%. Further, the AC50 under setting [2] was 0.0058 µM [falling, full curve, poor fit].
As for `COc1cc(/C=N/NC(=O)CN(CCc2ccccc2)S(=O)(=O)c2ccc(NC(C)=O)cc2)cc(OC)c1OC`, the cell number change stood at 9.73%.
As to `CCC1Oc2ccccc2C(=O)N(CC(=O)c2ccc3c(c2)OCCO3)C1=O` (stereo unspecified), the AC50 under setting [1] is 29.1 µM [falling, single point].
For the molecule `CC(C)N(CCNC(=O)C1CCC(=O)N1Cc1ccc(F)cc1)Cc1ccccc1` (stereo unspecified), the cell number change was found to be 32.2%. Further, the AC50 under setting [2] is 18.4 µM [rising, single point].
As to `CCCCc1nnc(NC(=O)c2ccc(S(=O)(=O)N3CCOCC3)cc2)s1`, the cell number change turned out to be 7.54%. Further, the AC50 under setting [1] was 29.1 µM [rising, single point].
